Values quoted from earlier work in paper PMC3784060 (Cancer Chemotherapy and Pharmacology, 2013).

Test system: A2780 ovarian carcinoma xenograft
Conditions: A2780 ovarian carcinoma xenograft mouse model; cited from earlier work

In the case of `CC(C)(C)c1cnc(CSc2cnc(NC(=O)C3CCNCC3)s2)o1` [SNS-032], the “therapeutic index (TI; maximum tolerated dose to effective dose)” value is given as 2.
In the case of `CN1CC[C@H](c2c(O)cc(O)c3c(=O)cc(-c4ccccc4Cl)oc23)[C@H](O)C1` [flavopiridol], the “therapeutic index (TI; maximum tolerated dose to effective dose)” value is given as less than 1.

The index is printed as in the source, without its formula.
